Source: PubChem BioAssay AID1508597 (Cure First, 2020)
Screen: 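Survival screen with siRNA in ovarian cancer cells derived from patients, with or without rucaparib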 (primary screen). Cell system: human ovarian carcinoma lines grown from tumours: OCI-P5x (papillary serous) and OCI-C5x (clear cell). Reagent: siRNA pool against human genes, 1.25 pmol siRNA per well. Time to read-out: 72 h or 96 h, depending on the cell culture. Treatment: rucaparib 20 µM (about IC30) or vehicle, present until read-out. Rucaparib or vehicle: Vehicle. Cell line: OCI-P5x (serous). Read-out: 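Luminescent ATP-based viability assay read 72 or 96 h after transfection, depending on culture, given as normalised percent viability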. Scale: viability, normalised: higher = more viable cells remaining. Call rule: 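a well counts as a hit if its normalised viability is under 80 percent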. Calls: active = viability under 80%; inactive = viability 80% or more.
This is an unselected part of the about 2,100 reagents, in one setting of the screen. 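Calls flag viability under 80% in either arm, not effects specific to rucaparib; the reference for percent is not stated.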 Entries without a mark were called inactive. No sequences are given here. Not given: the 100% reference.

NONO (non-POU domain containing octamer binding), technical replicate 1 — viability, normalised (%): 59.8 (active)
NONO (non-POU domain containing octamer binding), technical replicate 2 — viability, normalised (%): 81.8
NONO (non-POU domain containing octamer binding), technical replicate 3 — viability, normalised (%): 79 (active)
CLDN9 (claudin 9), technical replicate 1 — viability, normalised (%): 74.4 (active)
CLDN9 (claudin 9), technical replicate 2 — viability, normalised (%): 69.7 (active)
CLDN9 (claudin 9), technical replicate 3 — viability, normalised (%): 79.2 (active)
CBX1 (chromobox 1), technical replicate 1 — viability, normalised (%): 79.3 (active)
CBX1 (chromobox 1), technical replicate 2 — viability, normalised (%): 69.5 (active)
CBX1 (chromobox 1), technical replicate 3 — viability, normalised (%): 81.8
TXNDC9 (thioredoxin domain containing 9), technical replicate 1 — viability, normalised (%): 72.2 (active)
TXNDC9 (thioredoxin domain containing 9), technical replicate 2 — viability, normalised (%): 80.1
TXNDC9 (thioredoxin domain containing 9), technical replicate 3 — viability, normalised (%): 85.2
PWWP2B (PWWP domain containing 2B), technical replicate 1 — viability, normalised (%): 62.7 (active)
PWWP2B (PWWP domain containing 2B), technical replicate 2 — viability, normalised (%): 67.4 (active)
PWWP2B (PWWP domain containing 2B), technical replicate 3 — viability, normalised (%): 76.7 (active)
RFC1 (replication factor C subunit 1), technical replicate 1 — viability, normalised (%): 68.7 (active)
RFC1 (replication factor C subunit 1), technical replicate 2 — viability, normalised (%): 48.7 (active)
RFC1 (replication factor C subunit 1), technical replicate 3 — viability, normalised (%): 62.4 (active)
CARM1 (coactivator associated arginine methyltransferase 1), technical replicate 1 — viability, normalised (%): 57.6 (active)
CARM1 (coactivator associated arginine methyltransferase 1), technical replicate 2 — viability, normalised (%): 37.8 (active)
CARM1 (coactivator associated arginine methyltransferase 1), technical replicate 3 — viability, normalised (%): 47.7 (active)

Continued (2 carried over from the part before).
CARM1 (coactivator associated arginine methyltransferase 1), technical replicate 2 — viability, normalised (%): 37.8 (active)
CARM1 (coactivator associated arginine methyltransferase 1), technical replicate 3 — viability, normalised (%): 47.7 (active)
STRADA (STE20 related adaptor alpha), technical replicate 1 — viability, normalised (%): 77.8 (active)
STRADA (STE20 related adaptor alpha), technical replicate 2 — viability, normalised (%): 78.5 (active)
STRADA (STE20 related adaptor alpha), technical replicate 3 — viability, normalised (%): 66.8 (active)
NUDT1 (nudix hydrolase 1), technical replicate 1 — viability, normalised (%): 51.9 (active)
NUDT1 (nudix hydrolase 1), technical replicate 2 — viability, normalised (%): 61.6 (active)
NUDT1 (nudix hydrolase 1), technical replicate 3 — viability, normalised (%): 65 (active)
TAOK3 (TAO kinase 3), technical replicate 1 — viability, normalised (%): 74.8 (active)
TAOK3 (TAO kinase 3), technical replicate 2 — viability, normalised (%): 73.1 (active)
TAOK3 (TAO kinase 3), technical replicate 3 — viability, normalised (%): 92.9
NSD3 (nuclear receptor binding SET domain protein 3), technical replicate 1 — viability, normalised (%): 52.1 (active)
NSD3 (nuclear receptor binding SET domain protein 3), technical replicate 2 — viability, normalised (%): 43.5 (active)
NSD3 (nuclear receptor binding SET domain protein 3), technical replicate 3 — viability, normalised (%): 42.8 (active)
